# Measured values from PubChem BioAssay AID540256 (National Center for Advancing Translational Sciences (NCATS), 2011).
# The campaign covered roughly 300,000 compounds. About 3,700 (1.2%) were called active. The shares of active, inactive and inconclusive entries below differ from those in the screen. Calls come from the whole dose curve; tested in HEK293 cells. Potencies beside an inconclusive call are fits to weak or partial responses and may not hold up.
# Assay: qHTS for Inhibitors of binding or entry into cells for Lassa Virus; note: nearly all actives have a fitted effect of over 50% in size
# Settings: Lassa virus pseudotype entry inhibition, cell reporter; activity change, negative = inhibition: at 37.9 µM (top of the series) unless noted
# % is set by controls: 0 for no effect and ±100 for the full control effect; potency is the fitted concentration of half-maximal effect.
SMILES,Potency,"activity change, negative = inhibition"
O=C(COc1ccc2ccccc2c1)N1c2ccccc2Sc2ccccc21,"inconclusive: 16.4 µM [inhibitor, single point]",
O=C(c1cccs1)N1CCc2c([nH]c3ccccc23)C1c1ccc(Cl)cc1 (centres undefined),"inconclusive: 2.82 µM [inhibitor, full curve, poor fit]",
Cc1cccc(N2CCN(C3=NC(=O)C(=C4CCCCC4)S3)CC2)c1,,inactive: 5.58%
Cc1csc(C(C#N)C(=O)c2cc3ccccc3o2)n1 (centres undefined),"inconclusive: 29.1 µM [inhibitor, single point]",
CCOC(=O)c1ccc2oc(=O)n(Cc3ccccc3)c2c1,,inactive: -0.279% [at 46.1 µM]
O=C(/C=C/c1cccc(F)c1)N1CCc2ccccc21,"inconclusive: 0.316 µM [activator, full curve, poor fit]",
CCOc1cccc2cc(C(=O)NCc3ccc(OC)cc3)c(=N)oc12,"inconclusive: 12.6 µM [inhibitor, single point]",
Cc1ccc(C)c(CN2C(=O)c3ccccc3S(=O)(=O)c3ccc(C(=O)N4CCCCCC4)cc32)c1,"inconclusive: 22.4 µM [inhibitor, single point]",
COC(=O)Nc1c(-c2ccccc2)nc2ccc(Cl)cn12,,inactive: 9.71%
NC(=O)c1cccc2ccccc12,,inactive: 11.2% [at 46.1 µM]
COc1ccc(NC2CCCN(C(=O)c3ccc4[nH]c(C)c(C)c4c3)C2)cc1 (centres undefined),"inconclusive: 10 µM [inhibitor, partial curve]",
Cn1c(=O)c2c(-c3ccccc3Cl)n(-c3cc(Cl)ccc3O)cc2n(C)c1=O,"inconclusive: 35.5 µM [inhibitor, single point]",
O=C(COC(=O)c1ccc(-c2nnc(-c3ccccc3)o2)cc1)c1ccccc1,"inconclusive: 1 µM [activator, single point]",
O=S(=O)(c1ccc(Cl)c(C(F)(F)F)c1)N1CCN(CC(O)COCC2CCCO2)CC1 (centres undefined),,inactive: -7.51%
CCOc1ccc(S(=O)(=O)N2CCC(C(=O)N3CCN(c4ccccc4)CC3)CC2)cc1,"inconclusive: 3.16 µM [inhibitor, single point]",
Cc1cc(Nc2cccc(C)c2C)n2cnnc2n1,,inactive: 23.1% [at 46.1 µM]
Cc1ccc(C(=O)CC2(O)C(=O)N(CCc3ccccc3)c3ccc(Cl)cc32)cc1 (centres undefined),"inconclusive: 6.31 µM [inhibitor, full curve, poor fit]",
O=S(=O)(N[C@@H](CO)Cc1ccccc1)c1cc(Cl)ccc1F,"inconclusive: 0.141 µM [activator, full curve, poor fit]",
CCOC(=O)c1sc(NC(=O)OC)c(C(=O)OC)c1C,"inconclusive: 1.26 µM [inhibitor, partial curve, poor fit]",

# For reference, some entries already given:
SMILES,Potency,"activity change, negative = inhibition"
Cc1cc(Nc2cccc(C)c2C)n2cnnc2n1,,inactive: 23.1% [at 46.1 µM]
Cc1ccc(C(=O)CC2(O)C(=O)N(CCc3ccccc3)c3ccc(Cl)cc32)cc1 (centres undefined),"inconclusive: 6.31 µM [inhibitor, full curve, poor fit]",
